Reference: PMC10933402

Experiments:
EPRS-FLAG, P07814 = biological target: T1, EPRS-FLAG, P07814; test: affinity purification with mass spectrometry; FLAG eluates from HeLa-S3-FlpIn ± EPRSf or HeLa-S3-FlpIn-BCDIN3D-KO ± EPRSf analysed by LC-MS/MS; co-IP buffer with 150 mM NaCl, 0.1% NP-40, 4 °C; details: remark: other sources report otherwise
T1 chain: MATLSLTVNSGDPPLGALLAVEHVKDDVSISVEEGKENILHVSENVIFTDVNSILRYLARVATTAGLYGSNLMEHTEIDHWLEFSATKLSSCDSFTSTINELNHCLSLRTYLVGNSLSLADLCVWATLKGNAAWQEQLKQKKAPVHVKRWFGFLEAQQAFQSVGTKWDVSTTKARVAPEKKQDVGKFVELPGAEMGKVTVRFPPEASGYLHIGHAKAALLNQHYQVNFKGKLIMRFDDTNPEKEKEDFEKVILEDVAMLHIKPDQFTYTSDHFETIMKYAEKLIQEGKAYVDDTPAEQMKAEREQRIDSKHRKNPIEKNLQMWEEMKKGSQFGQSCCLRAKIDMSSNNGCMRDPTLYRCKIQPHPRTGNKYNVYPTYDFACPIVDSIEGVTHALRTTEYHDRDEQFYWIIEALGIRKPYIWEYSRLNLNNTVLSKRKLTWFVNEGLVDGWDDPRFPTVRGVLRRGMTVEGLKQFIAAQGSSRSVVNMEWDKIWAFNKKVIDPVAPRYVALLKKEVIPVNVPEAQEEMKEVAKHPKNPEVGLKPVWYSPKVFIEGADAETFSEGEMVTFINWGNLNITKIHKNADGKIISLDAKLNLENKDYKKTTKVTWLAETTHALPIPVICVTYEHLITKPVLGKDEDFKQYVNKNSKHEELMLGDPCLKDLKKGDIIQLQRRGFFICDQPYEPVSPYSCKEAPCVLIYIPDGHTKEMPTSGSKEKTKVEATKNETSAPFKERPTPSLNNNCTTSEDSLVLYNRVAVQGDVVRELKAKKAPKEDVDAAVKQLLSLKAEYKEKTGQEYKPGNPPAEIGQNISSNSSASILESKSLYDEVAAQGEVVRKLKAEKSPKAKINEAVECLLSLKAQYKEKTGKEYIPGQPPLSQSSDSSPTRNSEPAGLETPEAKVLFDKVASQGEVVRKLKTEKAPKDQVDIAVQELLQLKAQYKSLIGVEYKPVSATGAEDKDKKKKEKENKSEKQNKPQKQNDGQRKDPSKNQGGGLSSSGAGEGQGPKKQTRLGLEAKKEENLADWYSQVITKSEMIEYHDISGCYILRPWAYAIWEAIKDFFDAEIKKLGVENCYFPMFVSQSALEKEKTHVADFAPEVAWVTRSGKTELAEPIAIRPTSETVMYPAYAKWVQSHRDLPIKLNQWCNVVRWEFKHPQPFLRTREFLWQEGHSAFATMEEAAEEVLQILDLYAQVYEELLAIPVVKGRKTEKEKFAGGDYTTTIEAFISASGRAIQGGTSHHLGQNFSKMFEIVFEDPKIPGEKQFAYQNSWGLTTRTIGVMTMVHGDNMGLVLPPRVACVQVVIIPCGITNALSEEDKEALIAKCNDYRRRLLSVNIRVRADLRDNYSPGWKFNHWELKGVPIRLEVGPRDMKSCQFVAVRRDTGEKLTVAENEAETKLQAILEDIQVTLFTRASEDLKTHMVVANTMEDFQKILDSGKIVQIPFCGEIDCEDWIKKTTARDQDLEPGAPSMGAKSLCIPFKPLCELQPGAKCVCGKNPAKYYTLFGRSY

EPRS-FLAG = EPRS-FLAG (UniProt P07814); test: as above

B1: MARS (methionyl tRNA synthetase), endogenous, P56192 1-900 (protein)
chain: MRLFVSDGVPGCLPVLAAAGRARGRAEVLISTVGPEDCVVPFLTRPKVPVLQLDSGNYLFSTSAICRYFFLLSGWEQDDLTNQWLEWEATELQPALSAALYYLVVQGKKGEDVLGSVRRALTHIDHSLSRQNCPFLAGETESLADIVLWGALYPLLQDPAYLPEELSALHSWFQTLSTQEPCQRAAETVLKQQGVLALRPYLQKQPQPSPAEGRAVTNEPEEEELATLSEEEIAMAVTAWEKGLESLPPLRPQQNPVLPVAGERNVLITSALPYVNNVPHLGNIIGCVLSADVFARYSRLRQWNTLYLCGTDEYGTATETKALEEGLTPQEICDKYHIIHADIYRWFNISFDIFGRTTTPQQTKITQDIFQQLLKRGFVLQDTVEQLRCEHCARFLADRFVEGVCPFCGYEEARGDQCDKCGKLINAVELKKPQCKVCRSCPVVQSSQHLFLDLPKLEKRLEEWLGRTLPGSDWTPNAQFITRSWLRDGLKPRCITRDLKWGTPVPLEGFEDKVFYVWFDATIGYLSITANYTDQWERWWKNPEQVDLYQFMAKDNVPFHSLVFPCSALGAEDNYTLVSHLIATEYLNYEDGKFSKSRGVGVFGDMAQDTGIPADIWRFYLLYIRPEGQDSAFSWTDLLLKNNSELLNNLGNFINRAGMFVSKFFGGYVPEMVLTPDDQRLLAHVTLELQHYHQLLEKVRIRDALRSILTISRHGNQYIQVNEPWKRIKGSEADRQRAGTVTGLAVNIAALLSVMLQPYMPTVSATIQAQLQLPPPACSILLTNFLCTLPAGHQIGTVSPLFQKLENDQIESLRQRFGGGQAKTSPKPAVVETVTTAKPQQIQALMDEVTKQGNIVRELKAQKADKNEVAAEVAKLLDLKKQLAVAEGKPPEAPKGKKKK
binding (EPRS-FLAG, P07814): binds

B2: AIMP2 (protein, UniProt Q13155 1-320)
chain: MPMYQVKPYHGGGAPLRVELPTCMYRLPNVHGRSYGPAPGAGHVQEESNLSLQALESRQDDILKRLYELKAAVDGLSKMIQTPDADLDVTNIIQADEPTTLTTNALDLNSVLGKDYGALKDIVINANPASPPLSLLVLHRLLCEHFRVLSTVHTHSSVKSVPENLLKCFGEQNKKQPRQDYQLGFTLIWKNVPKTQMKFSIQTMCPIEGEGNIARFLFSLFGQKHNAVNATLIDSWVDIAIFQLKEGSSKEKAAVFRSMNSALGKSPWLAGNELTVADVVLWSVLQQIGGCSVTVPANVQRWMRSCENLAPFNTALKLLK
binding (EPRS-FLAG): binds

Results are given in words; binding and its absence hold for the method and conditions named. Binding seen in cells or lysates may run through a third protein. A yes stands for co-enrichment or nearness to the bait. Other partners may have been found. For some assays here: Where a sequence is shown, tags or fusion partners need not be part of it.
